## Melanoma cell counts after drug treatment

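Human melanoma cells were exposed to a pair of drugs for 72 h in 1,536-well plates and read by automated microscopy after fixing and staining. Each value is the count of nuclei relative to DMSO-treated wells, in %, so that 100 equals the control. Concentrations were fixed for each drug; these are the lower of two levels, a fifth of the higher. These are primary screening values without error estimates.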 This is part of the screen, not chosen by result. A dash means that no value is listed here.

First drug in all entries: FH535, 1 µM, Cc1cc([N+](=O)[O-])ccc1NS(=O)(=O)c1cc(Cl)ccc1Cl

Compounds and concentrations:
fludarabine (0.2 µM): Nc1nc(F)nc2c1ncn2[C@@H]1O[C@H](CO)[C@@H](O)[C@@H]1O
LFM-A13 (2 µM): C/C(O)=C(\C#N)C(=O)Nc1cc(Br)ccc1Br
cediranib (0.4 µM): COc1cc2c(Oc3ccc4[nH]c(C)cc4c3F)ncnc2cc1OCCCN1CCCC1
erlotinib (0.8 µM): C#Cc1cccc(Nc2ncnc3cc(OCCOC)c(OCCOC)cc23)c1
SU6656 (0.4 µM): CN(C)S(=O)(=O)c1ccc2c(c1)/C(=C/c1cc3c([nH]1)CCCC3)C(=O)N2
AZD7762 (0.02 µM): NC(=O)Nc1cc(-c2cccc(F)c2)sc1C(=O)N[C@H]1CCCNC1
selumetinib (0.015 µM): Cn1cnc2c(F)c(Nc3ccc(Br)cc3Cl)c(C(=O)NOCCO)cc21
etoposide (0.02 µM): COc1cc([C@@H]2c3cc4c(cc3[C@@H](O[C@@H]3O[C@@H]5CO[C@@H](C)O[C@H]5[C@H](O)[C@H]3O)[C@H]3COC(=O)[C@H]23)OCO4)cc(OC)c1O
GW9662 (2 µM): O=C(Nc1ccccc1)c1cc([N+](=O)[O-])ccc1Cl
nilutamide (1 µM): CC1(C)NC(=O)N(c2ccc([N+](=O)[O-])c(C(F)(F)F)c2)C1=O
ZM336372 (2 µM): Cc1ccc(NC(=O)c2cccc(N(C)C)c2)cc1NC(=O)c1ccc(O)cc1
sunitinib (0.4 µM): CCN(CC)CCNC(=O)c1c(C)[nH]c(/C=C2\C(=O)Nc3ccc(F)cc32)c1C
midostaurin (0.08 µM): CO[C@@H]1[C@H](N(C)C(=O)c2ccccc2)C[C@H]2O[C@]1(C)n1c3ccccc3c3c4c(c5c6ccccc6n2c5c31)C(=O)NC4
docetaxel (0.0001 µM): CC(=O)O[C@@]12CO[C@@H]1C[C@H](O)[C@@]1(C)C(=O)[C@H](O)C3=C(C)[C@@H](OC(=O)[C@H](O)[C@@H](NC(=O)OC(C)(C)C)c4ccccc4)C[C@@](O)([C@@H](OC(=O)c4ccccc4)[C@H]21)C3(C)C
pioglitazone (2 µM): CCc1ccc(CCOc2ccc(CC3SC(=O)NC3=O)cc2)nc1 (centres undefined)
JZL184 (1 µM): O=C(Oc1ccc([N+](=O)[O-])cc1)N1CCC(C(O)(c2ccc3c(c2)OCO3)c2ccc3c(c2)OCO3)CC1
CP-690550 (1 µM): C[C@@H]1CCN(C(=O)CC#N)C[C@@H]1N(C)c1ncnc2[nH]ccc12
OSU-03012 (1 µM): NCC(=O)Nc1ccc(-n2nc(C(F)(F)F)cc2-c2ccc3c(ccc4ccccc43)c2)cc1
tipifarnib (0.01 µM): Cn1cncc1[C@@](N)(c1ccc(Cl)cc1)c1ccc2c(c1)c(-c1cccc(Cl)c1)cc(=O)n2C
GW0742 (2 µM): Cc1cc(SCc2sc(-c3ccc(C(F)(F)F)c(F)c3)nc2C)ccc1OCC(=O)O
veliparib (1.4 µM): C[C@]1(c2nc3c(C(N)=O)cccc3[nH]2)CCCN1
BMS-536924 (0.2 µM): Cc1cc(N2CCOCC2)cc2[nH]c(-c3c(NC[C@@H](O)c4cccc(Cl)c4)cc[nH]c3=O)nc12
cisplatin (1.6 µM): N.N.[Cl][Pt][Cl]
lenalidomide (1 µM): Nc1cccc2c1CN(C1CCC(=O)NC1=O)C2=O (centres undefined)
OSI-906 (0.4 µM): C[C@]1(O)C[C@@H](c2nc(-c3ccc4ccc(-c5ccccc5)nc4c3)c3c(N)nccn32)C1
PF-04217903 (1 µM): OCCn1cc(-c2cnc3nnn(Cc4ccc5ncccc5c4)c3n2)cn1
CHIR-265 (0.08 µM): Cn1c(Nc2ccc(C(F)(F)F)cc2)nc2cc(Oc3ccnc(-c4ncc(C(F)(F)F)[nH]4)c3)ccc21
decitabine (0.1 µM): Nc1ncn([C@H]2C[C@H](O)[C@@H](CO)O2)c(=O)n1
SNS-314 (0.0008 µM): O=C(Nc1cccc(Cl)c1)Nc1ncc(CCNc2ncnc3ccsc23)s1
temozolomide (2 µM): Cn1nnc2c(C(N)=O)ncn2c1=O
MK-1775 (0.02 µM): C=CCn1c(=O)c2cnc(Nc3ccc(N4CCN(C)CC4)cc3)nc2n1-c1cccc(C(C)(C)O)n1
GSK650394 (0.16 µM): O=C(O)c1ccc(-c2c[nH]c3ncc(-c4ccccc4)cc23)cc1C1CCCC1
SNS-032 (0.01 µM): CC(C)(C)c1cnc(CSc2cnc(NC(=O)C3CCNCC3)s2)o1
gemcitabine (0.0004 µM): Nc1ccn([C@@H]2O[C@H](CO)[C@@H](O)C2(F)F)c(=O)n1
tamatinib (0.4 µM): COc1cc(Nc2ncc(F)c(Nc3ccc4c(n3)NC(=O)C(C)(C)O4)n2)cc(OC)c1OC

| Partner | LOX IMVI | COLO 800 | IST-MEL1 | 501mel | A2058 | G-361 | IPC-298 | COLO 829 |
|---|---|---|---|---|---|---|---|---|
| JZL184 | 74.4 | 99.7 | 87.6 | 76.6 | 90.4 | 86.9 | 88.2 | 88.4 |
| GW0742 | 160 | 98.5 | 92.3 | 101 | 101 | 95.7 | 103 | 105 |
| etoposide | 110 | 96.5 | 83.9 | 101 | 83.7 | 107 | 94.3 | 105 |
| gemcitabine | 172 | 104 | 63.4 | 106 | 81.3 | 96.7 | 82.8 | 97.5 |
| SNS-314 | 95.7 | 104 | 84.2 | 61.1 | 103 | 91.2 | 90.1 | 89.7 |
| fludarabine | 103 | 133 | 82.9 | 7.4 | 99.6 | 85.1 | 85.4 | 83.9 |
| PF-04217903 | 100 | 85.2 | 82.1 | 108 | 108 | 105 | 93.8 | 96.1 |
| temozolomide | 87.2 | 64.7 | 73.9 | - | 79.3 | 96.2 | 81.5 | 67.2 |
| cediranib | 117 | 121 | 96.1 | 106 | 107 | 102 | 100 | 104 |
| GW9662 | 125 | 118 | 93.5 | - | 90.4 | 101 | 92.6 | 74.7 |
| SU6656 | 119 | 132 | 80.7 | 94.5 | 105 | 88.2 | 96.7 | 112 |
| selumetinib | 99.2 | 139 | 84.4 | - | 93.2 | 79.7 | 67.2 | 88.4 |
| pioglitazone | 92.6 | 98.8 | 83.1 | 104 | 108 | 79.3 | 95.5 | 83.9 |
| MK-1775 | 91.7 | 80.5 | 91.5 | - | 99.3 | 93.8 | 88.5 | 76.8 |
| LFM-A13 | 98.1 | 76.6 | 85.8 | 83.5 | 84.0 | 92.5 | 84.6 | 76.8 |
| SNS-032 | 75.5 | 76.9 | 94.1 | 87.5 | 86.4 | 96.0 | 85.8 | 90.9 |
| BMS-536924 | 90.9 | 33.6 | 86.1 | 72.9 | 94.1 | 75.0 | 84.0 | 92.0 |
| tamatinib | 64.7 | 75.9 | 91.2 | 69.7 | 84.7 | 94.0 | 75.7 | 83.9 |
| tipifarnib | 85.5 | 119 | 89.9 | 73.5 | 94.4 | 84.7 | 86.1 | 82.8 |
| CHIR-265 | 96.2 | 117 | 76.8 | 66.4 | 80.0 | 63.7 | 56.6 | 69.1 |
| OSU-03012 | 78.2 | 99.8 | 87.3 | - | - | 89.2 | 79.3 | 65.7 |
| veliparib | 88.2 | 97.3 | 78.3 | 98.8 | 94.3 | 90.8 | 91.2 | 81.5 |
| decitabine | 90.0 | 112 | 72.1 | 76.9 | 83.9 | 70.9 | 57.3 | 72.9 |
| erlotinib | 111 | 82.7 | 90.0 | 101 | 98.4 | 103 | 85.6 | 94.9 |
| docetaxel | 68.8 | 47.4 | 62.2 | - | 7.2 | 26.0 | 69.2 | 72.3 |
| CP-690550 | 112 | 78.8 | 91.5 | 99.9 | 105 | 94.6 | 88.5 | 99.5 |
| sunitinib | 103 | 92.4 | 83.9 | 78.0 | 85.1 | 101 | 91.2 | 100 |
| AZD7762 | 91.6 | 84.7 | 102 | 80.0 | 107 | 99.8 | 91.9 | 98.0 |
| lenalidomide | 127 | 91.3 | 91.1 | 87.0 | 98.6 | 89.3 | 92.0 | 78.1 |
| OSI-906 | 116 | 64.8 | 82.9 | 78.2 | 106 | 84.1 | 87.7 | 97.9 |
| cisplatin | 109 | 95.9 | 89.4 | 106 | 87.5 | 96.4 | 89.7 | 90.7 |
| nilutamide | 93.0 | 106 | 89.6 | 90.1 | 97.0 | 101 | 85.2 | 93.8 |
| GSK650394 | 76.2 | 74.5 | 81.4 | 93.9 | 99.8 | 81.4 | 88.3 | 88.4 |
| midostaurin | 84.6 | 52.4 | 87.6 | 127 | 85.4 | 79.4 | 90.5 | 101 |
| ZM336372 | 75.0 | 121 | 91.9 | 89.2 | 93.8 | 89.4 | 77.9 | 106 |

Values as published with doi:10.1371/journal.pone.0140310, rounded.